According to article PMC9927933:
Results are given in words; binding and its absence hold for the method and conditions named. In cells and extracts the contact can be indirect. Some results given as binding are weak or reduced against the parent protein; the word gives no strength.

The chains behind the UniProt entries cited, without tags or fusion partners.
UniProt Q9UM11: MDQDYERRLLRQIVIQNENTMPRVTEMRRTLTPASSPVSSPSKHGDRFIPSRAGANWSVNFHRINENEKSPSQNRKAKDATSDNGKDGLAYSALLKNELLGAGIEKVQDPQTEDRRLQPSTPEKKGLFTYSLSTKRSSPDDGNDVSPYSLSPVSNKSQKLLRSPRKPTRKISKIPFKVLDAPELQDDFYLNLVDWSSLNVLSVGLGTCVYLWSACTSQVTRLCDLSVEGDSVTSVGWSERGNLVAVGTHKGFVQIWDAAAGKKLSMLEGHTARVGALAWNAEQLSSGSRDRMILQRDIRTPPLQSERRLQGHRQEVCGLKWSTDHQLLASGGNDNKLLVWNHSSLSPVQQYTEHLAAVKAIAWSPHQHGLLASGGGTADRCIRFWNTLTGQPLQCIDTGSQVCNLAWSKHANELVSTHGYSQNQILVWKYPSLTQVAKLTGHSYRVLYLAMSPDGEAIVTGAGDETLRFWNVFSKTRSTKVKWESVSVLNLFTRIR
UniProt Q8TB45: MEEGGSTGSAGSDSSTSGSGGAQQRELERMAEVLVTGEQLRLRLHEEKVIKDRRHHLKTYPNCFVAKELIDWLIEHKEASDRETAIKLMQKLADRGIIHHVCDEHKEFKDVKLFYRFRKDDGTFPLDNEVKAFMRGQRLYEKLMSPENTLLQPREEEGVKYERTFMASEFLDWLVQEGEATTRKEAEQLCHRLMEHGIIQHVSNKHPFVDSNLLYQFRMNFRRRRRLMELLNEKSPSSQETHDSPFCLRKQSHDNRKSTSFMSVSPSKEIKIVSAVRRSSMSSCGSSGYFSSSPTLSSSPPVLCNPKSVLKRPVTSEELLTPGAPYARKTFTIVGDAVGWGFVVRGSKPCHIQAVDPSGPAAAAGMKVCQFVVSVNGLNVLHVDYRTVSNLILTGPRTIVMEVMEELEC

Columns and labels:
[1] = biological target: CDH1 (UniProt Q9UM11); test: co-IP; reciprocal immunoprecipitation (Supplemental Figure 5A); cells and constructs not given; general co-IP method: 1-2 mg lysate in IP lysis buffer (50 mM Tris-HCl pH 8.0, 120 mM NaCl, 1% Triton X-100, 1 mM EDTA), overnight at 4°C, 5 washes, immunoblot
[2] = biological target: CDH1 (UniProt Q9UM11); test: co-IP; HEK293 cells transfected with indicated plasmids, pulled down with anti-FLAG beads, immunoblot (Figure 5E); IP lysis buffer 50 mM Tris-HCl pH 8.0, 120 mM NaCl, 1% Triton X-100, 1 mM EDTA, overnight at 4°C

DEP domain-containing mechanistic target of rapamycin (mTOR) interacting protein (DEPTOR) (from UniProt Q8TB45 1-409)
binding [1]: binds | binding [2]: binds
